Test results published in the supplement of paper PMC11438910.
The list shows a part of the results. Only a few entries rise above the background.

Legend:
Test in all cases: fluorescence intensity of antibody binding to polysaccharide-coupled beads; higher = stronger binding
[1] = target: pneumococcal polysaccharide Pn13
Procedure: (§1)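 Recombinant rhesus-murine chimeric IgG1 antibodies were tested against antigen-coupled MagPlex beads in a 96-plex Luminex direct immunoassay (dLIA). The beads carried pneumococcal capsular polysaccharides of 93 serotypes plus C-polysaccharides. Antibody was added at 0.1–12,500 ng/mL for 1 h, then PE anti-mouse IgG, and net MFI was read on a Bio-Plex 3D. Only the rhesus variable regions are printed; constant regions are murine IgG1/kappa/lambda, and the signal peptide is MGWSCIILFLVATATGVHS.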

[2] = target: pneumococcal polysaccharide Pn14
Procedure: as §1

[3] = target: pneumococcal polysaccharide Pn15A
Procedure: as §1

[4] = target: pneumococcal polysaccharide Pn15B
Procedure: as §1

[5] = target: pneumococcal polysaccharide Pn15C
Procedure: as §1

[6] = target: pneumococcal polysaccharide Pn15F
Procedure: as §1

[7] = target: pneumococcal polysaccharide Pn16A
Procedure: as §1

[8] = target: pneumococcal polysaccharide Pn16F
Procedure: as §1

[9] = target: pneumococcal polysaccharide Pn17A
Procedure: as §1

[10] = target: pneumococcal polysaccharide Pn17F
Procedure: as §1

[11] = target: pneumococcal polysaccharide Pn18A
Procedure: as §1

[12] = target: pneumococcal polysaccharide Pn18B
Procedure: as §1

[13] = antibody concentration 0.1 ng/mL
[14] = antibody concentration 0.534724 ng/mL
[15] = antibody concentration 2.8593 ng/mL
[16] = antibody concentration 15.2894 ng/mL
[17] = antibody concentration 81.7561 ng/mL
[18] = antibody concentration 437.17 ng/mL
[19] = antibody concentration 2337.65 ng/mL
[20] = antibody concentration 12500 ng/mL

B1: 4-127.3 (protein)
chain 1: QVQLQESGPGLVKPSETLSLTCAVSGYSISSGYGWSWIRQPPGKGLEWIGYIGGSSGSTNYNPSLKSRVTVSKDTSKNQFSLKLSSVTAADTAVYYCARADYCTSTTCYGPNRFDVWGPGVLVTVSS
chain 2: QAAPTQSPSVSGSAGQSVTISCTGSSSDIGYYNGVSWYQHHPGKAPKLMIYEVSKRPSGVSNRFSGSKSGNTASLTISGLQAADEADYFCSSYAGSGTYIFGAGTRLTVL
fluorescence intensity [1, 13]: 19 MFI | fluorescence intensity [1, 14]: 18.8 MFI | fluorescence intensity [1, 15]: 18 MFI | fluorescence intensity [1, 16]: 19.5 MFI | fluorescence intensity [1, 17]: 18.5 MFI | fluorescence intensity [1, 18]: 19.5 MFI | fluorescence intensity [1, 19]: 20 MFI | fluorescence intensity [1, 20]: 28.2 MFI | fluorescence intensity [2, 13]: 15 MFI | fluorescence intensity [2, 14]: 15.5 MFI | fluorescence intensity [2, 15]: 16 MFI | fluorescence intensity [2, 16]: 15.5 MFI | fluorescence intensity [2, 17]: 15 MFI | fluorescence intensity [2, 18]: 17 MFI | fluorescence intensity [2, 19]: 23 MFI | fluorescence intensity [2, 20]: 72.5 MFI | fluorescence intensity [3, 13]: 14 MFI | fluorescence intensity [3, 14]: 13.5 MFI | fluorescence intensity [3, 15]: 13 MFI | fluorescence intensity [3, 16]: 14 MFI | fluorescence intensity [3, 17]: 13 MFI | fluorescence intensity [3, 18]: 13.5 MFI | fluorescence intensity [3, 19]: 14.5 MFI | fluorescence intensity [3, 20]: 16 MFI | fluorescence intensity [4, 13]: 19 MFI | fluorescence intensity [4, 14]: 20 MFI | fluorescence intensity [4, 15]: 20.5 MFI | fluorescence intensity [4, 16]: 20.5 MFI | fluorescence intensity [4, 17]: 20.2 MFI | fluorescence intensity [4, 18]: 19.8 MFI | fluorescence intensity [4, 19]: 24.8 MFI | fluorescence intensity [4, 20]: 32.8 MFI | fluorescence intensity [5, 13]: 17.5 MFI | fluorescence intensity [5, 14]: 19.5 MFI | fluorescence intensity [5, 15]: 16.5 MFI | fluorescence intensity [5, 16]: 19 MFI | fluorescence intensity [5, 17]: 21 MFI | fluorescence intensity [5, 18]: 20.5 MFI | fluorescence intensity [5, 19]: 20.8 MFI | fluorescence intensity [5, 20]: 25.2 MFI | fluorescence intensity [6, 13]: 19 MFI | fluorescence intensity [6, 14]: 18.5 MFI | fluorescence intensity [6, 15]: 18 MFI | fluorescence intensity [6, 16]: 18.5 MFI | fluorescence intensity [6, 17]: 16.5 MFI | fluorescence intensity [6, 18]: 17.5 MFI | fluorescence intensity [6, 19]: 19 MFI | fluorescence intensity [6, 20]: 25.5 MFI | fluorescence intensity [7, 13]: 17 MFI | fluorescence intensity [7, 14]: 16.5 MFI | fluorescence intensity [7, 15]: 14 MFI | fluorescence intensity [7, 16]: 14.2 MFI | fluorescence intensity [7, 17]: 14 MFI | fluorescence intensity [7, 18]: 15.5 MFI | fluorescence intensity [7, 19]: 16 MFI | fluorescence intensity [7, 20]: 23.2 MFI | fluorescence intensity [8, 13]: 26 MFI | fluorescence intensity [8, 14]: 26 MFI | fluorescence intensity [8, 15]: 25.5 MFI | fluorescence intensity [8, 16]: 25.5 MFI | fluorescence intensity [8, 17]: 25.5 MFI | fluorescence intensity [8, 18]: 26.5 MFI | fluorescence intensity [8, 19]: 29 MFI | fluorescence intensity [8, 20]: 35 MFI | fluorescence intensity [9, 13]: 23.5 MFI | fluorescence intensity [9, 14]: 20.5 MFI | fluorescence intensity [9, 15]: 21.5 MFI | fluorescence intensity [9, 16]: 21 MFI | fluorescence intensity [9, 17]: 22.5 MFI | fluorescence intensity [9, 18]: 22 MFI | fluorescence intensity [9, 19]: 22 MFI | fluorescence intensity [9, 20]: 23 MFI | fluorescence intensity [10, 13]: 26.8 MFI | fluorescence intensity [10, 14]: 27.5 MFI | fluorescence intensity [10, 15]: 27 MFI | fluorescence intensity [10, 16]: 26.5 MFI | fluorescence intensity [10, 17]: 26.5 MFI | fluorescence intensity [10, 18]: 27.5 MFI | fluorescence intensity [10, 19]: 27.5 MFI | fluorescence intensity [10, 20]: 30 MFI | fluorescence intensity [11, 13]: 24.2 MFI | fluorescence intensity [11, 14]: 24 MFI | fluorescence intensity [11, 15]: 24 MFI | fluorescence intensity [11, 16]: 22.5 MFI | fluorescence intensity [11, 17]: 24 MFI | fluorescence intensity [11, 18]: 24 MFI | fluorescence intensity [11, 19]: 25.5 MFI | fluorescence intensity [11, 20]: 28 MFI | fluorescence intensity [12, 13]: 30 MFI | fluorescence intensity [12, 14]: 31 MFI
